# Measured values from publication PMC6831784.
# Amino acid sequences for entries named in this document (tags omitted).
# UniProt Q9UBN7: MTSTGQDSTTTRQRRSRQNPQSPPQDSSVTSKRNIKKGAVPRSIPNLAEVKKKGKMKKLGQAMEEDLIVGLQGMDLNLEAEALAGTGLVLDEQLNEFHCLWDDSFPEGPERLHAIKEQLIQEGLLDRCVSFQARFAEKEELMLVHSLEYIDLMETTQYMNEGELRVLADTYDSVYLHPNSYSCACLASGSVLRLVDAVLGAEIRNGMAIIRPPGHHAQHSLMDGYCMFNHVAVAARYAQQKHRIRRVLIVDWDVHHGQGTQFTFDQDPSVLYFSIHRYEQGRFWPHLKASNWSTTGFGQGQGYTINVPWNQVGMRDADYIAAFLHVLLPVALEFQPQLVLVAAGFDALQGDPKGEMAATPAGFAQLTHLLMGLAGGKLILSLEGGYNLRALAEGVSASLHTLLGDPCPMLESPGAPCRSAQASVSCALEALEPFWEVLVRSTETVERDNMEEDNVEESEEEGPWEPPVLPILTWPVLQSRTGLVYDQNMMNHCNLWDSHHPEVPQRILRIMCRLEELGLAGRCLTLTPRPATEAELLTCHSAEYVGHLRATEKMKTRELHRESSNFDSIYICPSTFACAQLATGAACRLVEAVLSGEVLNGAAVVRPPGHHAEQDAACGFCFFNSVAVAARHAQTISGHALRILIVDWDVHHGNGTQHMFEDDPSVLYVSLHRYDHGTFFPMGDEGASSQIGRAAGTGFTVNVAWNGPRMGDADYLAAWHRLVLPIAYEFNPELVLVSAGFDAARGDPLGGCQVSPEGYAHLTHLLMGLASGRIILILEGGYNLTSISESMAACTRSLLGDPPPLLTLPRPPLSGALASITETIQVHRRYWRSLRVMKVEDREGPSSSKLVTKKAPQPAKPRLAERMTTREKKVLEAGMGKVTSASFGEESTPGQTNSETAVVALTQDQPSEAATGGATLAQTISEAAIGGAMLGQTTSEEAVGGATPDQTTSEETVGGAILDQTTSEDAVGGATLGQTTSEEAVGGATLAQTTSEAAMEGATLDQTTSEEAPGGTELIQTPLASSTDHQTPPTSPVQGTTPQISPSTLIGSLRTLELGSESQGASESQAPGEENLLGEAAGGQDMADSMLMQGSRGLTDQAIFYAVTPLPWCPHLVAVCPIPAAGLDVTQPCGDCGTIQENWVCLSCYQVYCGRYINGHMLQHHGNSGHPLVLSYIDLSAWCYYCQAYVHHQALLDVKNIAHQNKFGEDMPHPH
# No constants are given. Whether binding was seen depends on the method and setting. Binding seen in cells or lysates may run through a third protein. Some results given as binding are weak or reduced against the parent protein; the word gives no strength.
# Assays:
# [1] = molecular target: Nef-G2A-EGFP (non-myristoylated HIV-1 Lai Nef mutant, C-terminal EGFP) (HIV-1 (Lai)) (UniProt P03406); assay: co-IP; HEK-293T cells co-transfected; cleared lysates incubated with anti-EGFP antibody on protein G magnetic beads and 1 mg/mL RNAse A overnight at 4°C; blots with anti-HDAC6, anti-HA, anti-Nef and anti-EGFP
# [2] = molecular target: wt-Nef-EGFP (full-length wild-type HIV-1 Lai Nef, C-terminal EGFP) (HIV-1 (Lai)) (UniProt P03406); assay: as above
# [3] = molecular target: HA-wt-HDAC6 (histone deacetylase 6, N-terminal HA epitope) (UniProt Q9UBN7); assay: co-IP; HEK-293T cells co-transfected; cleared lysates incubated with anti-HA antibody on protein G magnetic beads and 1 mg/mL RNAse A overnight at 4°C; blots with anti-HDAC6, anti-Nef and anti-HA
Substance,binding [1],binding [2],binding [3]
"HA-wt-HDAC6 (histone deacetylase 6, N-terminal HA epitope) (from UniProt Q9UBN7 1-1215) (enzyme)",binds,binds,
"wt-Nef-EGFP (full-length wild-type HIV-1 Lai Nef, C-terminal EGFP) (from UniProt P03406 1-206)",,,binds
